Paper PMC2840025
Results are given in words; binding and its absence hold for the method and conditions named. In cells and extracts the contact can be indirect. Binding calls can cover weak binding; strength is not graded here. For some of these results: Sequences can lack the tags named with a protein. Blank lines part the entries; values can stand above or below the molecule they belong to.

Assays:
[1] = target: T1, EGFP fusion of AGS3 (Activator of G protein Signaling 3) (UniProt Q9R080); assay: co-IP; anti-GFP antibody covalently linked to magnetic microbeads, Flp-In CV-1 stable cells; stringent wash (650 mM NaCl, 1% Igepal CA-630, 0.5% sodium deoxycholate, 0.1% SDS, 50 mM Tris-HCl pH 8.0); western blot for Gαi3
T1 sequence: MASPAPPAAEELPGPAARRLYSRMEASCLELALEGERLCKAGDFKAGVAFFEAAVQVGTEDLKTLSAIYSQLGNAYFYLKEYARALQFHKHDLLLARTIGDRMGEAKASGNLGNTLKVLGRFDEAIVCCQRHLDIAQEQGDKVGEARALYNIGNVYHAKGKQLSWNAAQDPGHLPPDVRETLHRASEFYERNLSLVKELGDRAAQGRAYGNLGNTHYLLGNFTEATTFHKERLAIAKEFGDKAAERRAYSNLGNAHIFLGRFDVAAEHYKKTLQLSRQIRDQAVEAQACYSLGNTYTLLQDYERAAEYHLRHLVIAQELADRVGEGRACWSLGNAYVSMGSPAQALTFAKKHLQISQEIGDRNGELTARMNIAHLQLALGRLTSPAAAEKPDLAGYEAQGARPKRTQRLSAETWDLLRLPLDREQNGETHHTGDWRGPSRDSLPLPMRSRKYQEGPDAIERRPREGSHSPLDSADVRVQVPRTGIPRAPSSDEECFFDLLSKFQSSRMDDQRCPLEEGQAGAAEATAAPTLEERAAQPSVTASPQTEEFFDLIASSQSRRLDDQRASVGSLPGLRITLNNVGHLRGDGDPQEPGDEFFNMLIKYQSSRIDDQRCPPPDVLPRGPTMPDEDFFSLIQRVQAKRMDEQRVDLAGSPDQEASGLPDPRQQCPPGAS

[2] = target: T2, AGS3 (endogenous, rat) (rat (endogenous in rat PFC and PC12)) (UniProt Q9R080); assay: co-IP; endogenous proteins, PC12, COS7 and HeLa cells; data not depicted
T2 sequence: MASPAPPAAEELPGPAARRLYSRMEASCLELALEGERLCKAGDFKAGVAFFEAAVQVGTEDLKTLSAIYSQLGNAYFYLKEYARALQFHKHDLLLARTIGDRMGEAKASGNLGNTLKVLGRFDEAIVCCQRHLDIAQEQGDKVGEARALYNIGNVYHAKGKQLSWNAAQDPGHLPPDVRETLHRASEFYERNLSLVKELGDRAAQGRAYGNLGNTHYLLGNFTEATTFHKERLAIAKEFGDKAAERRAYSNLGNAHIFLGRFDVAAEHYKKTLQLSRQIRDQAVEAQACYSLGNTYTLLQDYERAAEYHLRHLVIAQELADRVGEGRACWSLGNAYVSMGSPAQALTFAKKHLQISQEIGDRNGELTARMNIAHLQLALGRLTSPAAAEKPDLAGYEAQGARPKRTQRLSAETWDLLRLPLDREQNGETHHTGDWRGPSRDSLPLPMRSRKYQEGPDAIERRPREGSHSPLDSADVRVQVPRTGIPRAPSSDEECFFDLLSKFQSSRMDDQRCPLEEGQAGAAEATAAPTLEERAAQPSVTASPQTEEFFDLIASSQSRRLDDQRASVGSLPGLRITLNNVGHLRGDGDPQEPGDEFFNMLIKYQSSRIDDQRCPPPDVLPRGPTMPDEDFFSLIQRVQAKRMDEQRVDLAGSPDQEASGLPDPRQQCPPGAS

[3] = target: T2, AGS3 (endogenous, rat) (rat (endogenous in rat PFC and PC12)); assay: co-IP; endogenous proteins, rat brain PFC lysate in homogenization buffer (20 mM Hepes pH 7.6, 125 mM NaCl, 10% glycerol, 1 mM EDTA, 1 mM EGTA); anti-AGS3 or anti-USP9x antibody 10 µg/ml, protein G-Sepharose, 4°C; western blot
[4] = target: USP9x (endogenous, rat) (rat (endogenous in rat PFC and PC12)); assay: as above

- binding [1]: binds
Molecule: Gαi3 (endogenous, Flp-In CV-1 cells)

- binding [2]: binds
- binding [3]: binds
Molecule: USP9x (endogenous, rat) (enzyme)

- binding [4]: binds
B1: AGS3 (endogenous, rat) (protein, UniProt Q9R080 1-673)
chain: MASPAPPAAEELPGPAARRLYSRMEASCLELALEGERLCKAGDFKAGVAFFEAAVQVGTEDLKTLSAIYSQLGNAYFYLKEYARALQFHKHDLLLARTIGDRMGEAKASGNLGNTLKVLGRFDEAIVCCQRHLDIAQEQGDKVGEARALYNIGNVYHAKGKQLSWNAAQDPGHLPPDVRETLHRASEFYERNLSLVKELGDRAAQGRAYGNLGNTHYLLGNFTEATTFHKERLAIAKEFGDKAAERRAYSNLGNAHIFLGRFDVAAEHYKKTLQLSRQIRDQAVEAQACYSLGNTYTLLQDYERAAEYHLRHLVIAQELADRVGEGRACWSLGNAYVSMGSPAQALTFAKKHLQISQEIGDRNGELTARMNIAHLQLALGRLTSPAAAEKPDLAGYEAQGARPKRTQRLSAETWDLLRLPLDREQNGETHHTGDWRGPSRDSLPLPMRSRKYQEGPDAIERRPREGSHSPLDSADVRVQVPRTGIPRAPSSDEECFFDLLSKFQSSRMDDQRCPLEEGQAGAAEATAAPTLEERAAQPSVTASPQTEEFFDLIASSQSRRLDDQRASVGSLPGLRITLNNVGHLRGDGDPQEPGDEFFNMLIKYQSSRIDDQRCPPPDVLPRGPTMPDEDFFSLIQRVQAKRMDEQRVDLAGSPDQEASGLPDPRQQCPPGAS
